Laboratory results reported in PubChem BioAssay AID540276 (National Center for Advancing Translational Sciences (NCATS), 2011).
The campaign covered roughly 300,000 compounds. About 5,400 (1.8%) were called active. Inconclusive results, whose numbers are uncertain, are shown with a selection of clear calls. Calls come from the whole dose curve; tested in HEK293 cells. Potencies beside an inconclusive call are fits to weak or partial responses and may not hold up.
% is set by controls: 0 for no effect and ±100 for the full control effect; potency is the fitted concentration of half-maximal effect.

Assay: qHTS for inhibitors of binding or entry into cells for Marburg Virus
Details: Marburg virus pseudotyped entry inhibition, cell reporter; activity change, negative = inhibition: at 37.8 µM (top of the series) unless noted
For `COCc1cc(C)nc(NC2CC(C)(C)NC(C)(C)C2)c1C#N`, the Potency was inconclusive: 35.5 µM [inhibitor, single point].
For `N#CC1CC(c2ccc([N+](=O)[O-])cc2)=NN1c1ccc([N+](=O)[O-])cc1` (stereo not drawn), the Potency was inconclusive: 10 µM [activator, partial curve, poor fit].
In the case of `CCCC1c2ccc(C)n2CCN1C(=O)Nc1ccccc1Cl` (stereo not drawn), the Potency is reported as “inactive”.
In the case of `COC(=O)N[C@@H](CCc1ccccc1)[C@]1(C(=O)OC)CCCC1=O`, the “activity change, negative = inhibition” value is reported as inactive: -8.83% [at 14.2 µM].
For `COc1ccc(-n2ncc3c(NC(C)C)ncnc32)cc1`, the Potency was inconclusive: 11.2 µM [inhibitor, single point].
In the case of `Cn1cnnc1SC(C(=O)Nc1cccc(C(F)(F)F)c1)c1ccccc1` (stereo not drawn), the Potency is reported as inconclusive: 0.794 µM [inhibitor, partial curve, poor fit].
With `O=C(C(=O)c1cc(Br)ccc1O)c1cc(Br)ccc1O` the Potency was inconclusive: 17.8 µM [inhibitor, partial curve, poor fit].
In the case of `O=C(c1ccco1)N1CCN(C/C=C/c2ccccc2)CC1`, the “activity change, negative = inhibition” value is reported as inactive: 2.9%.
In the case of `CC(C)Cc1ccc(C(C)C(N)=Nc2ccc(O)cc2)cc1` (stereo not drawn), the Potency is reported as inconclusive: 22.4 µM [inhibitor, single point].
For `O=c1c2sc3ccccc3c2n(Cc2cccc(Cl)c2)c(=O)n1Cc1ccccc1`, the Potency was inconclusive: 25.1 µM [inhibitor, single point].
With `CC(C)OC(=O)c1sc2nc3c(cc2c1N)C(=O)CCC3` the Potency was inconclusive: 17.8 µM [activator, single point].
In the case of `CCCCCOc1ccc(/C=C/C(=O)NCCc2nc3ccccc3[nH]2)cc1OC`, the Potency is reported as inconclusive: 23.1 µM [inhibitor, single point].
With `CCN(CC)S(=O)(=O)c1ccc(N2CCCC2)c(NC(=O)Cc2cc(OC)c(OC)c(OC)c2)c1` the “activity change, negative = inhibition” value was inactive: -13.4% [at 46.1 µM].
In the case of `Cc1ccc2nc(NC(=O)c3ccco3)sc2c1`, the Potency is reported as active: 4.47 µM.
In the case of `CCc1ccc(N2C(=O)NC(=O)C(CCc3ccncc3)(CCc3ccncc3)C2=O)cc1`, the Potency is reported as inconclusive: 4.47 µM [activator, single point].
For `Cc1cccc(NC(=O)c2cccc(S(=O)(=O)Nc3ccccc3C(=O)O)c2)c1`, the “activity change, negative = inhibition” value was inactive: 11.3% [at 46.1 µM].
With `O=C(N1CCOCC1)n1nnc2ccccc21` the Potency was inconclusive: 1.16 µM [inhibitor, full curve, poor fit].
With `Cc1cc2c([nH]c3ccccc32)c(C)n1` the Potency was inconclusive: 25.1 µM [inhibitor, single point].
In the case of `COc1ccc(NC(=O)CN2CCCC2)cc1`, the “activity change, negative = inhibition” value is reported as inactive: 1.3%.
With `CC(C)=CCC1(CC=C(C)C)C(=O)C(C(=O)c2ccccc2)=C2OC(C)(C)CCC2(CC=C(C)C)C1=O` (stereo not drawn) the Potency was “inactive”.
In the case of `Cc1cccc(C(=O)NCCc2nc3ccccc3n2CCC(C)C)c1`, the Potency is reported as inconclusive: 17.8 µM [inhibitor, partial curve, poor fit].
With `O=S(=O)(/N=C/c1c(O)ccc2ccccc12)c1ccccc1` the Potency was inconclusive: 10 µM [inhibitor, partial curve, poor fit].
With `Oc1c(Br)cc(Br)cc1C=NCc1ccc(F)cc1` the Potency was inconclusive: 15.8 µM [inhibitor, single point].
With `CN=C1c2c(-c3ccccc3)c3cc(OC)ccc3n2CCN1C` the Potency was inconclusive: 7.08 µM [inhibitor, partial curve, poor fit].
In the case of `O=C1ON=C(c2ccc(Cl)cc2)/C1=C/c1ccc(O)cc1`, the Potency is reported as inconclusive: 35.5 µM [inhibitor, single point].
With `COC(=O)c1ccccc1S(=O)(=O)NNC(=O)Nc1ccccc1` the Potency was inconclusive: 35.5 µM [inhibitor, single point].
For `COc1cc(C2c3[nH]c4ccccc4c3C[C@H]3C(=O)N(C4CC4)CC(=O)N23)ccc1OC(C)C` (stereo partly drawn), the Potency was inconclusive: 2.24 µM [inhibitor, partial curve, poor fit].
For `O=C(CN1C(=O)c2ccccc2S1(=O)=O)NC1CCCC1`, the “activity change, negative = inhibition” value was inactive: 9.66%.
With `O=C(Nc1ccc([N+](=O)[O-])cn1)C1CC1` the Potency was inconclusive: 1.26 µM [activator, single point].
In the case of `Nc1nonc1-n1nnc(C(=O)N/N=C/c2ccc(F)cc2)c1-c1ccc2c(c1)OCO2`, the “activity change, negative = inhibition” value is reported as inactive: -23.7% [at 46.1 µM].
For `Cc1ccc(C2C(C(=O)c3cccs3)=C(O)C(=O)N2c2ccc(S(N)(=O)=O)cc2)cc1` (stereo not drawn), the “activity change, negative = inhibition” value was inactive: 3.43%.
For `CC(=O)Nc1nc(C)c(Oc2ccc(C)cc2)c(=O)[nH]1`, the Potency was inconclusive: 3.55 µM [inhibitor, single point].
For `CCC(=NCCc1c(C)[nH]c2ccc(OC(F)(F)F)cc12)C1=C(O)CC(c2ccccc2)CC1=O` (stereo not drawn), the Potency was inconclusive: 3.55 µM [inhibitor, partial curve, poor fit].
For `CCN(CC)C(=O)c1c([N+](=O)[O-])c(C(C)(C)C)nn1C`, the Potency was inconclusive: 0.891 µM [inhibitor, single point].
With `CCOC(=O)C1CCCN(C(=O)C(CCSC)NC(=O)COc2ccccc2)C1` (stereo not drawn) the “activity change, negative = inhibition” value was inactive: 1.19%.
For `O=C(Nc1ccc(F)cc1F)C1CCN(S(=O)(=O)c2cccnc2)CC1`, the Potency was inconclusive: 14.1 µM [activator, single point].
In the case of `COCCn1c(=NC(=O)c2ccc(S(=O)(=O)N3CCCc4ccccc43)cc2)sc2cc(S(C)(=O)=O)ccc21`, the “activity change, negative = inhibition” value is reported as inactive: 43.3%.
With `CSc1ccc(C2c3c(-c4ccccc4O)n[nH]c3C(=O)N2Cc2ccncc2)cc1` (stereo not drawn) the Potency was inconclusive: 15.8 µM [inhibitor, single point].
For `NC(=O)c1cn(C2OC(CO)C(O)C2O)c2ncnc(N)c12` (stereo not drawn), the Potency was active: 0.0731 µM.
With `CCCCn1cc2c(c1-c1ccc(Br)cc1)c(=O)n(C)c(=O)n2C` the Potency was inconclusive: 17.8 µM [inhibitor, single point].
In the case of `CCc1cccc(NC(=O)C2CCCN(c3ncnc4c3nc3n4CCCCC3)C2)c1` (stereo not drawn), the Potency is reported as inconclusive: 25.1 µM [inhibitor, single point].
In the case of `Cc1cccc(NC(=S)N2CCC(C(=O)c3ccc(F)cc3)CC2)c1`, the Potency is reported as inconclusive: 35.5 µM [inhibitor, single point].
In the case of `CC(=O)Nc1ccc(-c2csc(Nc3cc(C)ccn3)n2)cc1`, the Potency is reported as inconclusive: 22.4 µM [inhibitor, partial curve, poor fit].
